Literature values as cited in patent publication US20240226212A1, “GENOMIC SEQUENCES FOR YEAST PROBIOTICS” (Worcester Polytechnic Institute, priority 2023, published 2024).
For at least one compound, name, drawing or mass did not settle the structure.

Test system: C. albicans

Compound: OCCc1ccccc1 [phenylethanol]
- filamentation of C. albicans: shown to inhibit filamentation
